Data as given in PubChem BioAssay AID1224829 (NIAID, 2016)
In all, the deposit lists about 3,800 reagents; shown is a random part of them. 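Calls cover raised and lowered translocation; gene median uses one vendor's three siRNAs; qiagen siRNAs acted more weakly than ambion siRNAs.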 Entries without a mark were called inactive. Reagents against one gene are numbered here.

Test: 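Genes needed for LPS-driven NF-kappaB p65 nuclear entry in mouse macrophages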 (follow-up of hits)
Cells: mouse RAW264.7 G9 macrophage reporter cells
Reagents: single siRNA against mouse genes, 100 nM
Timing: 2 days of siRNA knock-down, then 40 min of LPS before fixing
Challenge: LPS (Salmonella minnesota R595) at 10 ng/ml
Measurement: 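Imaging of GFP-p65 after 40 min of LPS; nuclear over perinuclear ring intensity ratio, scaled to plate median and non-targeting control wells, given as z-score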
Direction: p65 translocation z-score and gene median z-score, per vendor: higher = more nuclear NF-kappaB p65 after LPS
Active means: 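An siRNA is called active when the mean z-score of its two replicates is above 2 or below -2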
Meaning of the calls: active = changed p65 translocation (either direction); inactive = no clear change

The opening 4 records as a preview:
gene symbol,reagent no.,siRNA vendor or control pool,"p65 translocation z-score, replicate mean","p65 translocation z-score, replicate 1","p65 translocation z-score, replicate 2","gene median z-score, per vendor"
Hoxa2,1,ambion single siRNA,,,,-4.5
Hoxa2,2,ambion single siRNA,-3.38 (active),-2.2,-4.56,-4.5
Hoxa2,3,ambion single siRNA,-5.69 (active),-6.94,-4.44,-4.5
Hoxa2,4,qiagen single siRNA,0.455,0.619,0.29,-1.99

The listing, repeating the preview:
gene symbol,reagent no.,siRNA vendor or control pool,"p65 translocation z-score, replicate mean","p65 translocation z-score, replicate 1","p65 translocation z-score, replicate 2","gene median z-score, per vendor"
Hoxa2,1,ambion single siRNA,,,,-4.5
Hoxa2,2,ambion single siRNA,-3.38 (active),-2.2,-4.56,-4.5
Hoxa2,3,ambion single siRNA,-5.69 (active),-6.94,-4.44,-4.5
Hoxa2,4,qiagen single siRNA,0.455,0.619,0.29,-1.99
Hoxa2,5,qiagen single siRNA,-0.699,-4.39,2.99,-1.99
Hoxa2,6,qiagen single siRNA,-5.11 (active),-4.27,-5.95,-1.99
Ifi204,1,ambion single siRNA,0.0138,0.212,-0.185,-1.5
Ifi204,2,ambion single siRNA,-3.09 (active),-4.18,-2,-1.5
Ifi204,3,ambion single siRNA,-1.72,-2.45,-0.992,-1.5
Ifi204,4,qiagen single siRNA,0.726,-0.906,2.36,-0.315
Ifi204,5,qiagen single siRNA,2.2 (active),-0.315,4.71,-0.315
Ifi204,6,qiagen single siRNA,-1.74,-1.74,,-0.315
Or4a68,1,ambion single siRNA,-3.14 (active),-3.14,,0.0277
Or4a68,2,ambion single siRNA,1.77,3.52,0.0277,0.0277
Or4a68,3,ambion single siRNA,1.03,-1.28,3.33,0.0277
Or4a68,4,qiagen single siRNA,-0.0749,-0.253,0.103,-0.706
Or4a68,5,qiagen single siRNA,-1.21,-1.26,-1.16,-0.706
Or4a68,6,qiagen single siRNA,-0.469,-1.61,0.672,-0.706
Klra19,1,ambion single siRNA,-0.0444,0.489,-0.578,-0.354
Klra19,2,ambion single siRNA,-1.78,-2.98,-0.583,-0.354
Klra19,3,ambion single siRNA,0.208,-0.131,0.546,-0.354
Klra19,4,qiagen single siRNA,-0.785,0.781,-2.35,-0.258
Klra19,5,qiagen single siRNA,0.879,-3,4.76,-0.258
Klra19,6,qiagen single siRNA,1.94,-1.3,5.18,-0.258
Srrt,1,ambion single siRNA,-2.98 (active),-3.44,-2.51,-2.87
Srrt,2,ambion single siRNA,-4.12 (active),-4.99,-3.24,-2.87
Srrt,3,ambion single siRNA,-1.59,-2.34,-0.839,-2.87
Srrt,4,qiagen single siRNA,0.181,0.312,0.0499,-0.359
Srrt,5,qiagen single siRNA,-1.19,-0.767,-1.61,-0.359
Srrt,6,qiagen single siRNA,,,,-0.359
Synj2bp,1,ambion single siRNA,-3.29 (active),-2.81,-3.77,-3.32
Synj2bp,2,ambion single siRNA,-2.69 (active),-2.86,-2.51,-3.32
Synj2bp,3,ambion single siRNA,-5.27 (active),-4.62,-5.92,-3.32
Clta,1,ambion single siRNA,-0.463,-0.463,,-1.8
Clta,2,ambion single siRNA,-3.7 (active),-3.7,,-1.8
Clta,3,ambion single siRNA,-1.8,-1.26,-2.33,-1.8
Clta,4,qiagen single siRNA,2.22 (active),1.67,2.78,0.87
Clta,5,qiagen single siRNA,0.889,-0.2,1.98,0.87
Clta,6,qiagen single siRNA,-0.661,0.0653,-1.39,0.87
Moap1,1,ambion single siRNA,-1.07,-1.05,-1.08,-1.07
Moap1,2,ambion single siRNA,0.0133,0.257,-0.23,-1.07
Moap1,3,ambion single siRNA,-2.53 (active),-2.48,-2.59,-1.07
Moap1,4,qiagen single siRNA,-0.704,-0.165,-1.24,-0.888
Moap1,5,qiagen single siRNA,-0.117,-0.534,0.301,-0.888
Moap1,6,qiagen single siRNA,-1.71,-1.89,-1.54,-0.888
Ren2,1,ambion single siRNA,3.59 (active),4.29,2.89,-1.91
Ren2,2,ambion single siRNA,-2.86 (active),-2.47,-3.24,-1.91
Ren2,3,ambion single siRNA,-2.45 (active),-1.36,-3.54,-1.91
Ren2,4,qiagen single siRNA,0.813,-0.557,2.18,0.391
Ren2,5,qiagen single siRNA,0.307,1.34,-0.726,0.391
Ren2,6,qiagen single siRNA,0.818,-0.69,2.32,0.391
